The target of assay [1] is T1, GABAB receptor subunit 2 (GABAB-R2) (rat (endogenous in hippocampus)) (UniProt O88871).
T1 sequence: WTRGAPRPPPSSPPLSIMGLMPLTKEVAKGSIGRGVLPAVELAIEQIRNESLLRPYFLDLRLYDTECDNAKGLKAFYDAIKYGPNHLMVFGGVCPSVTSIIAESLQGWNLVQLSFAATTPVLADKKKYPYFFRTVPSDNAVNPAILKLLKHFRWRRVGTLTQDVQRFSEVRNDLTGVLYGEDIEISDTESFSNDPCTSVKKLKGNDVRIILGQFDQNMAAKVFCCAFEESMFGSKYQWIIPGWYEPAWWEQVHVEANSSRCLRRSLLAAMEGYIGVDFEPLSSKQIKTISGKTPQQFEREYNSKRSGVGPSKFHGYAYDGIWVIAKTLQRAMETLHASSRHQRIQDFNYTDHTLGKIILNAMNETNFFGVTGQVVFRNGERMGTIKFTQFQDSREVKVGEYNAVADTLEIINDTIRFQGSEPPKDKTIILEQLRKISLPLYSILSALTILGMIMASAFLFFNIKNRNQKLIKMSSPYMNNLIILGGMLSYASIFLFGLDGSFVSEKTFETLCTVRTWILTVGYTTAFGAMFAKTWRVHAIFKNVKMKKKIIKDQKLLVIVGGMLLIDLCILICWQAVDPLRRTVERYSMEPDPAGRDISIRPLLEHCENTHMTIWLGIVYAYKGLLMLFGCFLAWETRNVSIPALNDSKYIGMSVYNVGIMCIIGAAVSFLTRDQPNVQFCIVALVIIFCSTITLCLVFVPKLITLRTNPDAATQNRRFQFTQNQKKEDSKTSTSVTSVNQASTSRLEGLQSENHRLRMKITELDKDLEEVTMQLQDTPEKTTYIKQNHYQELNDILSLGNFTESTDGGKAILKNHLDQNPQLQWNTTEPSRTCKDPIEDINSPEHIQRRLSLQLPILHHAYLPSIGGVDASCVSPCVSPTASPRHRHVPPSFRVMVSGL
The assay is described as follows: co-IP; hippocampal tissue lysate from normally sleeping and 12 h sleep-deprived rats; pellet solubilised in RIPA buffer (150 mM NaCl, 50 mM Tris-HCl, 1% Nonidet P-40, 0.1% SDS, 0.5% sodium deoxycholate, pH 8.0); antibody overnight at 4°C, protein A/G-agarose beads; 7% SDS gel, blotted for GABAB-R1 or GABAB-R2.

The chains behind the UniProt entries cited, without tags or fusion partners. Residues count along the entry.
UniProt P23385, residues 19-1199: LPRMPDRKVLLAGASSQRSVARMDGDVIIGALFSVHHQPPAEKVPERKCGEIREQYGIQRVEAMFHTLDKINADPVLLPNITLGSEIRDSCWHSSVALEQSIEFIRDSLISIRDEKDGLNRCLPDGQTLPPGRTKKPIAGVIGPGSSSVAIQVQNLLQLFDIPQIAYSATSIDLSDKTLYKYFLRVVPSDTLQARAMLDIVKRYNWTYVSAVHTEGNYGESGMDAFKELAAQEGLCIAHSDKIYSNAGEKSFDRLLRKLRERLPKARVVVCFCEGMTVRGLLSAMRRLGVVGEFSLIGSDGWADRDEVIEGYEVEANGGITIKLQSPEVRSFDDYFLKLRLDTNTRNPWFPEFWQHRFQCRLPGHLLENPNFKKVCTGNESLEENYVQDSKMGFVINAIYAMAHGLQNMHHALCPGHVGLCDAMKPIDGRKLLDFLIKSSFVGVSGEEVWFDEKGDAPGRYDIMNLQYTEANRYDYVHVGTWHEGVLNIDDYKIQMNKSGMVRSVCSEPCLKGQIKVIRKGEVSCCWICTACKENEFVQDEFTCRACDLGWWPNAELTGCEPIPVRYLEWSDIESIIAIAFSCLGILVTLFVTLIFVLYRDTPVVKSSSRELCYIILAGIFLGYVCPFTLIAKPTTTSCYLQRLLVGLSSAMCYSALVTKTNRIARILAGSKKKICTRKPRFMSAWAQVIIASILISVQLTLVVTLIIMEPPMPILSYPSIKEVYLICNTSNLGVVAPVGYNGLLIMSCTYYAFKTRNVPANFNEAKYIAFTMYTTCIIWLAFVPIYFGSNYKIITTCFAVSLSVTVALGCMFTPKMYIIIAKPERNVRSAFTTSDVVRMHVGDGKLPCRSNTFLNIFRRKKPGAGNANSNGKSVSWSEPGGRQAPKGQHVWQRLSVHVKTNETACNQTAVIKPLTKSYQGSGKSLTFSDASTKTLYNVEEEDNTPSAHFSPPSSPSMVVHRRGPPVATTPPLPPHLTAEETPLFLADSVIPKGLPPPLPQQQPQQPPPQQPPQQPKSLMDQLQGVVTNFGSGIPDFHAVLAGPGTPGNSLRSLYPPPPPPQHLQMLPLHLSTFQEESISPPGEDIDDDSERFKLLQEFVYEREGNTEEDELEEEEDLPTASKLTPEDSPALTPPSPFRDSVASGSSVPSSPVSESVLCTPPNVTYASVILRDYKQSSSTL
UniProt Q9Z0U4, residues 20-960: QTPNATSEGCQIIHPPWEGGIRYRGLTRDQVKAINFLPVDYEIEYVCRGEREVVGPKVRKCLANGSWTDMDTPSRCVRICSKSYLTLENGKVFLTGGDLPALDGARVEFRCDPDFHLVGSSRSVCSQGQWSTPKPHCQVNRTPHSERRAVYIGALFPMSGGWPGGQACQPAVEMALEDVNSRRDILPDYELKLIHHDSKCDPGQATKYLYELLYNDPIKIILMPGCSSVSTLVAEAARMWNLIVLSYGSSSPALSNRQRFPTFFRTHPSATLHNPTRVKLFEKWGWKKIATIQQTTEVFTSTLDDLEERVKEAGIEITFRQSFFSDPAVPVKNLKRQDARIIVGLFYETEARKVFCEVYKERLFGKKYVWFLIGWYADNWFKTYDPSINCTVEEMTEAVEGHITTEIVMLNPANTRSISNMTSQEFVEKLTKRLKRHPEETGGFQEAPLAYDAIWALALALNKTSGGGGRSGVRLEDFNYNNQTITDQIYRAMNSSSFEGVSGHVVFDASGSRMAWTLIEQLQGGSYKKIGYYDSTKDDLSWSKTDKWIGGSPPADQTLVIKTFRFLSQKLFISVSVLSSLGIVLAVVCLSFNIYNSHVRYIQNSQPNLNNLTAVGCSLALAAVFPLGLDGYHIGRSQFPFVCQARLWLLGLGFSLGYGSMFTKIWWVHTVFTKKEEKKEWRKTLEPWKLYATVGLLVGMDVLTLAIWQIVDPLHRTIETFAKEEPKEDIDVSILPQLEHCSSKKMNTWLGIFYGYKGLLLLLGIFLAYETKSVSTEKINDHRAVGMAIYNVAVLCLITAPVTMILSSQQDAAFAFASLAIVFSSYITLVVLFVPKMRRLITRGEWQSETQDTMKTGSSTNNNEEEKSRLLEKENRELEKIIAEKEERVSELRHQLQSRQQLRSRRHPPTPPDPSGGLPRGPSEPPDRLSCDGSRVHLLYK

Assay [2] concerns the target metabotropic glutamate receptor 1 alpha (mGlu1αR) (rat (endogenous in hippocampus)) (UniProt P23385). Described as above.

From paper PMC3182263 come the findings set out here.

No constants are given. Whether binding was seen depends on the method and setting. Binding seen in cells or lysates may run through a third protein. Some binding calls cover weakened binding; strength is not graded here.

Turning to “GABAB receptor subunit 1 (GABAB-R1) (from UniProt Q9Z0U4 20-960)”, the binding entry in assay [1] and in assay [2] was “binds” in each case.

B1: GABAB receptor subunit 2 (GABAB-R2) (receptor, UniProt O88871 41-940)
chain: T1 sequence
Take B1: the binding result in assay [2] is “binds”.
